Laboratory results taken from the supplement of paper PMC10689618.
Counter-ions that a name gives are not always drawn. The list shows a part of the results. Single values are uncertain, as repeats are few or missing.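 Primary human fetal astrocytes engulfed labelled rat cortical synaptosomes, measured as a red/green ratio corrected for calcein live-cell signal and scaled to the plate median. Toxicity meant calcein falling over 30%; decreased phagocytosis meant below 70% of median above 5 µM.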

Legend:
Human fetal astrocytes [1] = assay: loss of total cells relative to no-compound high-control median (toxicity); higher = more toxic (fewer cells); conditions: 24 h
Human fetal astrocytes [2] = assay: synaptosome phagocytosis (pHrodo/calcein intensity ratio) relative to plate median of data wells; higher = more phagocytosis; conditions: 24 h

SMILES	loss of total cells (Human fetal astrocytes [1]; 1.39 µM)	loss of total cells (Human fetal astrocytes [1]; 2.78 µM)	loss of total cells (Human fetal astrocytes [1]; 5.56 µM)	loss of total cells (Human fetal astrocytes [1]; 11.11 µM)	loss of total cells (Human fetal astrocytes [1]; 22.22 µM)	synaptosome phagocytosis (Human fetal astrocytes [2]; 1.39 µM)	synaptosome phagocytosis (Human fetal astrocytes [2]; 2.78 µM)	synaptosome phagocytosis (Human fetal astrocytes [2]; 5.56 µM)	synaptosome phagocytosis (Human fetal astrocytes [2]; 11.11 µM)	synaptosome phagocytosis (Human fetal astrocytes [2]; 22.22 µM)
CC1(C)S[C@@H]2[C@H](NC(=O)Cc3ccccc3)C(=O)N2[C@H]1C(=O)O	-24.6%	-20.7%	-9.1%	-6.6%	-16.7%	80.2%	109%	132%	123%	115%
CC(c1cc2ccccc2s1)N(O)C(N)=O (stereo not given)	1.1%	4.7%	33.6%	29.7%	-0.4%	87.8%	74.4%	123%	107%	90.5%
CCCCOc1ccc(C(=O)CCN2CCCCC2)cc1	14.5%	-7.1%	16%	41.2%	73.3%	90.9%	80.5%	82.1%	48.2%	65.4%
CCCCC(=O)O[C@]1(C(=O)CO)[C@@H](C)C[C@H]2[C@@H]3CCC4=CC(=O)C=C[C@]4(C)[C@@]3(F)[C@@H](O)C[C@@]21C	-11.6%	-16.8%	-8.1%	-10.9%	-30%	103%	110%	79.1%	98.5%	105%
C[C@H]1O[C@H](O[C@H]2[C@H](O)[C@@H](O)[C@@H](O[C@@H]([C@H](O)[C@@H](O)C=O)[C@H](O)CO)O[C@@H]2CO)[C@H](O)[C@@H](O)[C@@H]1N[C@H]1C=C(CO)[C@@H](O)[C@H](O)[C@H]1O	-50%	-46%	-13.7%	17.4%	-4%	104%	94.3%	128%	122%	95.1%
CCN(CC)CCOC(=O)c1ccc(N)cc1 [Procaine hydrochloride]	30%	-16.6%	-23%	-8.9%	7.6%	116%	122%	146%	99.5%	104%
N[C@@H](CCC(=O)N[C@@H](CSC(CC(=O)O)C(=O)O)C(=O)NCC(=O)O)C(=O)O (stereo not given in full)	6.1%	6.9%	2.9%	14.6%	-0.8%	148%	104%	105%	119%	119%
CN1CCC(OC(c2ccccc2)c2ccccc2)CC1 [4-(benzhydryloxy)-1-methylpiperidine]	-8.6%	-11.9%	0%	-7.2%	22.2%	109%	90.1%	91.6%	86.9%	84.5%
Cc1ccc(S(=O)(=O)NC(=O)NN2CC3CCCC3C2)cc1 (stereo not given)	9%	6.9%	23.2%	17.2%	6.1%	113%	113%	137%	141%	151%
CC(C)C[C@H](N)C(=O)N[C@@H](C)C(=O)O	9%	15.5%	10.9%	-1.3%	16.7%	99.1%	159%	128%	117%	129%
O=C(O)C1=C(CSc2nnnn2CS(=O)(=O)O)CS[C@@H]2[C@H](NC(=O)[C@H](O)c3ccccc3)C(=O)N12	-17.7%	-22.2%	-16.8%	-1.6%	9%	102%	110%	103%	101%	138%
COC(=O)c1c(OC)cc2c(c1C)Oc1c(Cl)c(O)c(Cl)c(C)c1C(=O)O2	-8.3%	0.7%	13%	18.1%	1.1%	84.5%	102%	141%	103%	64%
CCOC(=O)[C@H](CCc1ccccc1)N[C@@H](C)C(=O)N1[C@H](C(=O)O)C[C@@H]2CCC[C@@H]21	-25%	-21.4%	4.3%	-1%	-1.6%	88.4%	94.6%	96.1%	88.8%	112%
CCCC1O[C@@H]2C[C@H]3[C@@H]4CCC5=CC(=O)C=C[C@]5(C)[C@H]4[C@@H](O)C[C@]3(C)[C@]2(C(=O)CO)O1 (stereo not given in full)	0.3%	-24.7%	-13.9%	-25.1%	-36.8%	115%	140%	102%	106%	112%
CC1(O)CCOC(=O)C1 (stereo not given)	1.1%	6.9%	2.2%	13%	7.6%	127%	90.1%	113%	67.7%	98.3%
C=Cc1c(C)c2cc3[nH]c(cc4nc(cc5nc(cc1[nH]2)C(C)=C5CCC(=O)O)C(CCC(=O)O)=C4C)c(C)c3C=C	28.5%	-0.4%	17.4%	23.8%	33.3%	88.7%	110%	117%	119%	121%
CC(C)[C@@H]1CC[C@@H](C)CC1=O	-14.8%	-2.5%	2.2%	4.1%	-4.4%	88.7%	98.9%	90.7%	98.8%	88.9%
O=C1C(=O)c2ccccc2C(O)=C1C1CCC(c2ccc(Cl)cc2)CC1 (stereo not given)	0%	-45.2%	12.4%	-12.1%	19.6%	120%	95.8%	133%	87.2%	103%

Some of the entries above, reformatted:
SMILES,loss of total cells (Human fetal astrocytes [1]; 1.39 µM),loss of total cells (Human fetal astrocytes [1]; 2.78 µM),loss of total cells (Human fetal astrocytes [1]; 5.56 µM),loss of total cells (Human fetal astrocytes [1]; 11.11 µM),loss of total cells (Human fetal astrocytes [1]; 22.22 µM),synaptosome phagocytosis (Human fetal astrocytes [2]; 1.39 µM),synaptosome phagocytosis (Human fetal astrocytes [2]; 2.78 µM),synaptosome phagocytosis (Human fetal astrocytes [2]; 5.56 µM),synaptosome phagocytosis (Human fetal astrocytes [2]; 11.11 µM),synaptosome phagocytosis (Human fetal astrocytes [2]; 22.22 µM)
CCCCC(=O)O[C@]1(C(=O)CO)[C@@H](C)C[C@H]2[C@@H]3CCC4=CC(=O)C=C[C@]4(C)[C@@]3(F)[C@@H](O)C[C@@]21C,-11.6%,-16.8%,-8.1%,-10.9%,-30%,103%,110%,79.1%,98.5%,105%
C[C@H]1O[C@H](O[C@H]2[C@H](O)[C@@H](O)[C@@H](O[C@@H]([C@H](O)[C@@H](O)C=O)[C@H](O)CO)O[C@@H]2CO)[C@H](O)[C@@H](O)[C@@H]1N[C@H]1C=C(CO)[C@@H](O)[C@H](O)[C@H]1O,-50%,-46%,-13.7%,17.4%,-4%,104%,94.3%,128%,122%,95.1%

Further records

SMILES	loss of total cells (Human fetal astrocytes [1]; 1.39 µM)	loss of total cells (Human fetal astrocytes [1]; 2.78 µM)	loss of total cells (Human fetal astrocytes [1]; 5.56 µM)	loss of total cells (Human fetal astrocytes [1]; 11.11 µM)	loss of total cells (Human fetal astrocytes [1]; 22.22 µM)	synaptosome phagocytosis (Human fetal astrocytes [2]; 1.39 µM)	synaptosome phagocytosis (Human fetal astrocytes [2]; 2.78 µM)	synaptosome phagocytosis (Human fetal astrocytes [2]; 5.56 µM)	synaptosome phagocytosis (Human fetal astrocytes [2]; 11.11 µM)	synaptosome phagocytosis (Human fetal astrocytes [2]; 22.22 µM)
CC(=O)Nc1ccccc1	-30.7%	-3.4%	-3.9%	-7%	-7.9%	87.8%	68.3%	102%	85%	101%
CC1(O)CC2C(CC1O)C2(C)C (stereo not given)	5.7%	-14.1%	0%	32.4%	14.8%	118%	92.4%	99%	107%	121%
CC(=O)O[C@H]1CC[C@]2(C)[C@H]3CC=C4[C@@H]5CC(C)(C)CC[C@]5(C)CC[C@@]4(C)[C@]3(C)CC[C@H]2C1(C)C [beta-AMYRIN ACETATE]	-23.6%	-0.7%	-19.8%	14.2%	1.9%	88%	88.7%	92%	70.1%	113%
CC(N)C12CC3CC(CC(C3)C1)C2 (stereo not given)	32.3%	-40.5%	0%	-1.6%	7.2%	107%	74.5%	71.4%	77.6%	81.3%
Nc1ncnc2c1ncn2[C@@H]1O[C@H](CO)[C@@H](O)[C@@H]1O	-2.1%	-21.4%	-28.6%	-11.2%	-7%	90.3%	132%	114%	109%	87.1%
C[C@@H]1NC(=O)[C@@H](N)CNC(=O)[C@H](C2CCNC(=N)N2)NC(=O)/C(=C/NC(N)=O)NC(=O)[C@H](CNC(=O)CC(N)CCCN)NC1=O.N=C1NCC[C@H]([C@@H]2NC(=O)/C(=C/NC(N)=O)NC(=O)[C@H](CNC(=O)C[C@@H](N)CCCN)NC(=O)[C@H](CO)NC(=O)[C@@H](N)CNC2=O)N1	-2.5%	21.6%	-2.7%	-17.2%	-22.7%	101%	118%	116%	155%	118%
CCOC(=O)CCCCCCCCCCCCC1C=CCC1 (stereo not given)	-4.9%	-3.2%	8.8%	24.3%	13.3%	122%	102%	126%	151%	118%
COC(=O)CC1C(C)(C)C(OC(C)=O)[C@@H]2[C@@H](OC(C)=O)[C@]34O[C@@]2(O)[C@]1(C)C3CC[C@]1(C)C4=CC(=O)O[C@H]1c1ccoc1 (stereo not given in full)	11.2%	2.5%	16.7%	4.6%	22%	114%	94.5%	137%	95.1%	49.8%
CCN(CC)CCNC(=O)COc1ccc(OC)cc1	-44.8%	-13.1%	-2.7%	-14.1%	-3.4%	108%	91.2%	83.4%	69.8%	102%
CC(C)(O/N=C(\C(=O)N[C@@H]1C(=O)N2C(C(=O)[O-])=C(C[n+]3ccccc3)CS[C@H]12)c1csc(N)n1)C(=O)O	-14.9%	6%	42.7%	7.1%	24.8%	107%	109%	135%	86.6%	140%
COc1cc(OC)c2c(=O)c(-c3ccccc3)c(C)oc2c1OC	27.2%	7.3%	-17.6%	31.6%	21.1%	127%	112%	114%	124%	169%
O=C(O[C@@H]1Cc2c(O)cc(O)cc2O[C@@H]1c1cc(O)c(=O)c2c(O)c(O)cc([C@H]3Oc4cc(O)cc(O)c4C[C@H]3OC(=O)c3cc(O)c(O)c(O)c3)c2c1)c1cc(O)c(O)c(O)c1	-7.6%	15.9%	-4.6%	29%	18.1%	98.2%	109%	79.9%	92.6%	72.4%
CC[C@H]1OC(=O)[C@H](C)[C@@H](O[C@H]2C[C@@](C)(OC)[C@@H](O)[C@H](C)O2)[C@H](C)[C@@H](O[C@@H]2O[C@H](C)C[C@H](N(C)C)[C@H]2O)[C@](C)(O)C[C@@H](C)C(=O)[C@H](C)[C@@H](O)[C@]1(C)O	-26.6%	-20.4%	2.1%	-14.1%	5.1%	98.3%	96.5%	117%	84.4%	114%
CC(CCC(=O)O)[C@H]1CCC2C3CC[C@@H]4CC(=O)CC[C@]4(C)C3C=C[C@@]21C (stereo not given in full)	-7.4%	1.8%	-10.3%	4.7%	5.9%	115%	105%	110%	124%	98.1%
CN(C(=O)C(Cl)Cl)c1ccc(OC(=O)c2ccco2)cc1	-29%	-28.6%	-3.1%	-8.2%	8.4%	93.9%	106%	97.9%	77.8%	107%
OC[C@H]1O[C@@H](Oc2ccc(O)cc2)[C@H](O)[C@@H](O)[C@@H]1O	-9.8%	-1.8%	9.5%	11.5%	11.9%	126%	109%	110%	107%	129%
COC(=O)[C@@H]1[C@H]2C[C@H]3c4[nH]c5ccccc5c4CCN3C[C@@H]2CC[C@@H]1O	25.2%	-5.8%	-18.8%	5.5%	19.8%	94.5%	102%	97%	80.2%	121%
COc1cc2c(cc1OC)C1(O)C(=O)c3ccc(O)c(C(=O)O)c3OC1CO2 (stereo not given)	12%	-17.3%	27.5%	-5.2%	1.1%	121%	116%	155%	97.8%	102%
